# Measurements reported in PubChem BioAssay AID504444 (National Center for Advancing Translational Sciences (NCATS), 2011).
# About 7,500 (2.1%) of roughly 360,000 compounds were called active. This list was built around the results that the source calls inconclusive (neither active nor inactive); the mix of calls is not that of the screen. Calls come from the whole dose curve; as a rule, active = well fitted inhibition curve with a large enough effect; inconclusive = small, poorly fitted or top-dose-only effect, or effect the other way; inactive = flat fitted curve, though single readings scatter. Where the call is inconclusive, the potency comes from a doubtful curve fit.
# Assay: Nrf2 qHTS screen for inhibitors; note: nearly all actives have a fitted effect of over 60% in size
# Conditions: A549 ARE-Fluc reporter, luciferase luminescence, 18-24 h; activity change, negative = inhibition: at 46 µM (top of the series)
# Method in brief: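 Quantitative HTS in A549 cells stably bearing an antioxidant response element-firefly luciferase construct. Inhibition of Nrf2-driven transcription was scored by luminescence after 18-24 h of compound exposure at 37 °C.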
# % is set by controls: 0 for no effect and ±100 for the full control effect; potency is the fitted concentration of half-maximal effect.
SMILES,Potency,"activity change, negative = inhibition"
Cc1ccc(CN(Cc2cccn2-c2nnc(N3CCCC3=O)s2)C(=O)Nc2ccc(F)cc2)cc1,inactive,
COc1cc(C(CCN2CCOCC2)c2c(OC)cc(OC)c3c(-c4ccccc4)cc(=O)oc23)cc(OC)c1OC (stereo not drawn),inactive,
COc1cc(Cl)c(C)cc1NC(=O)c1cccc(OC)c1OC,"inconclusive: 7.31 µM [activator, partial curve, poor fit]",
COc1ccccc1CNC(=O)CSCc1nc(-c2ccc(OC)c(OC)c2)oc1C,"inconclusive: 18.4 µM [falling, single point]",
O=C(NCc1ccccc1Cl)c1cc(C(=O)C2CC2)c[nH]1,"inconclusive: 20.6 µM [falling, single point]",
CCCCNC(=O)c1sc(=S)n2c1[nH]c(=O)c1ccccc12,"inconclusive: 29.1 µM [falling, single point]",
CCN(CC)S(=O)(=O)c1ccc(C)c(NC(=O)CNc2cccc(S(=O)(=O)N3CCOCC3)c2)c1,"inconclusive: 32.6 µM [falling, partial curve, poor fit]",
Cc1ccc(C(=O)NCCSCc2ccc(Cl)cc2Cl)cc1[N+](=O)[O-],"inconclusive: 18.4 µM [activator, partial curve, poor fit]",
CCc1cc(-c2[nH]ncc2-c2ccc3c(c2)OCO3)c(O)cc1O,inactive,
COc1ccc(N=C2C(=Nc3ccc(OC)cc3)N(c3ccc(OC)cc3)C(=S)N2c2ccccc2)cc1,inactive,
Nc1c(Cl)cc(-c2csc(N3CCCC3c3nc4cc(Cl)c(N5CCCCC5)cc4n3CCCO)n2)cc1Cl (stereo not drawn),inactive,
O=C(C1CCCN(S(=O)(=O)c2ccc(Cl)cc2)C1)N(Cc1cccs1)C1CC1 (stereo not drawn),"inconclusive: 18.4 µM [falling, partial curve, poor fit]",
COc1ccc(C2Nc3ccccc3C(=O)N2c2ccc(F)cc2)cc1Cn1nnc2ccccc21 (stereo not drawn),"inconclusive: 25.9 µM [activator, partial curve, poor fit]",
Cc1cccnc1NC(=S)Nc1ccc(Br)cc1Cl,"inconclusive: 10.3 µM [activator, partial curve, poor fit]",
Cc1n[nH]c(=S)c2nn(-c3ccccc3F)c(C)c12,inactive,
CCOC(=O)c1ccc(N2CC(O)=C(c3nc4ccccc4c(=O)[nH]3)C2=N)cc1,"inconclusive: 20.6 µM [activator, single point]",
CCN(Cc1ccccc1)c1ccc(/C=C(\C#N)c2ccccn2)cc1,"inconclusive: 5.17 µM [activator, partial curve]",
O=C(Nc1cc(=O)[nH]c(=O)[nH]1)c1cc(Cl)ccc1Cl,"inconclusive: 23.1 µM [activator, single point]",
Cc1nc(-c2ccc(NC(=O)Cc3ccccc3)cc2)cs1,"inconclusive: 2.91 µM [activator, full curve]",
CCOC(=O)c1c(-c2ccncc2)csc1N,inactive,
CCOC(=O)C1=C(CSc2nc3ccccc3s2)NC(=O)NC1c1cc(C)ccc1C (stereo not drawn),"inconclusive: 23.1 µM [falling, partial curve, poor fit]",
O=C(Nc1nnc(-c2ccc3c(c2)CCCC3)o1)c1ccccc1,"inconclusive: 29.1 µM [falling, single point]",
O=C(Nc1nc2nccc(-c3ccccc3)n2n1)c1ccccc1,inactive,

SMILES,Potency,"activity change, negative = inhibition"
COc1ccccc1N(Cc1ccccc1)S(=O)(=O)c1cccc(C(=O)Nc2cc(C)ccn2)c1,"inconclusive: 1.46 µM [activator, partial curve]",
C=CCNc1nc2c(c(=O)[nH]c(=O)n2C)n1CC(O)COc1ccc2ccccc2c1 (stereo not drawn),inactive,
CC1CCCC(C)N1S(=O)(=O)c1ccc(NC(=O)CCn2cnc3ccccc3c2=O)cc1 (stereo not drawn),"inconclusive: 29.1 µM [falling, partial curve, poor fit]",
Cc1cc(C(=O)COC(=O)Cc2n[nH]c(=O)c3ccccc23)c(C)n1-c1ccc2c(c1)OCCO2,"inconclusive: 16.4 µM [falling, single point]",
O=C(COC(=O)Cn1cnc2ccccc2c1=O)Nc1ccc(Cl)c(C(F)(F)F)c1,"inconclusive: 3.66 µM [activator, full curve]",
COc1ccc(NC(=S)NN2CCN(C)CC2)cc1,"inconclusive: 0.517 µM [activator, full curve, poor fit]",
CCCN1C(=O)/C(=C/c2ccccc2OCc2ccc(C(=O)O)cc2)NC1=S,"inconclusive: 0.0041 µM [falling, full curve, poor fit]",
O=C1CC(c2cccc(Cl)c2Cl)c2cc3c(cc2N1)OCCO3 (stereo not drawn),"inconclusive: 18.4 µM [falling, single point]",
COc1cc(OC)c(NC(=O)Cn2c(SCc3ccccc3F)nc3cccnc32)cc1Cl,inactive,
Cc1cccc(C(=O)NCCNC(=O)c2cccnc2)c1,"inconclusive: 2.06 µM [falling, full curve]",
Cc1ccc(C2C(C#N)=C3N=C(N)c4ccccc4N3C3=C2C(=O)CCC3)cc1 (stereo not drawn),inactive,
Cn1c(CSCc2ccc(F)cc2)nnc1SCC(=O)Nc1nccs1,active: 18.4 µM,
Cc1ccc2nc(-c3ccc(NC(=S)NC4CC(C)(C)NC(C)(C)C4)cc3)sc2c1,"inconclusive: 2.91 µM [activator, full curve]",
CC1CCCCN1Cc1nc2c(c(=O)n(C)c(=O)n2C)n1CCCc1ccccc1 (stereo not drawn),"inconclusive: 5.17 µM [activator, single point]",
COc1ccc(OC)c(NC(=O)CN(c2ccc(OC)c(Cl)c2)S(C)(=O)=O)c1,"inconclusive: 29.1 µM [falling, single point]",
CN(CC(=O)Nc1ccccc1N1CCOCC1)S(=O)(=O)c1ccc(F)cc1,"inconclusive: 10.3 µM [falling, partial curve, poor fit]",
COc1ccc(OC)c(NC(=O)CCn2cccn2)c1,"inconclusive: 29.1 µM [activator, single point]",
CN(Cc1ccsc1)C(=O)CCc1nnc(CCCc2ccccc2)o1,"inconclusive: 23.1 µM [activator, single point]",
Cc1cc(C(=O)C(=O)N(C)C)c(C)n1-c1ccc(Cl)c(Cl)c1,"inconclusive: 25.9 µM [falling, single point]",
Cc1ccccc1Cn1ccc(NC(=O)c2cnn3c(C(F)(F)F)cc(-c4ccco4)nc23)n1,"inconclusive: 20.6 µM [falling, single point]",
CC(C)Nc1nc2nonc2nc1Nc1ccccc1,"inconclusive: 23.1 µM [falling, single point]",
O=C(NN=C1CCCCCC1)c1cccnc1,inactive,
CCN(CC)c1ccc(NC(=O)CN2CCN(S(=O)(=O)c3cc(Cl)ccc3OC)CC2)cc1,"inconclusive: 25.9 µM [falling, single point]",

# Copied from the results shown (6 entries):
SMILES,Potency,"activity change, negative = inhibition"
O=C(C1CCCN(S(=O)(=O)c2ccc(Cl)cc2)C1)N(Cc1cccs1)C1CC1 (stereo not drawn),"inconclusive: 18.4 µM [falling, partial curve, poor fit]",
COc1ccc(C2Nc3ccccc3C(=O)N2c2ccc(F)cc2)cc1Cn1nnc2ccccc21 (stereo not drawn),"inconclusive: 25.9 µM [activator, partial curve, poor fit]",
Cc1cccnc1NC(=S)Nc1ccc(Br)cc1Cl,"inconclusive: 10.3 µM [activator, partial curve, poor fit]",
Cc1n[nH]c(=S)c2nn(-c3ccccc3F)c(C)c12,inactive,
CCOC(=O)c1ccc(N2CC(O)=C(c3nc4ccccc4c(=O)[nH]3)C2=N)cc1,"inconclusive: 20.6 µM [activator, single point]",
CCN(Cc1ccccc1)c1ccc(/C=C(\C#N)c2ccccn2)cc1,"inconclusive: 5.17 µM [activator, partial curve]",

# (listing goes on)

SMILES,Potency,"activity change, negative = inhibition"
COc1ccc(NC(=O)CSc2nc(-c3ccccc3)[nH]c2-c2ccccc2)cc1OC,active: 16.4 µM,
COc1ccccc1-n1c(SCC(=O)N2CCOCC2)nc(O)c(Cc2ccccc2)c1=O,"inconclusive: 5.8 µM [falling, partial curve, poor fit]",
NNC(=O)CSc1cccc2cccnc12,inactive,
CC(=O)c1ccc(N2CCN(C(=O)c3cc4c(s3)-c3ccccc3OC4)CC2)cc1,"inconclusive: 18.4 µM [falling, single point]",
Cc1cc(C)nc(SCc2ccc(C(=O)N/N=C/c3ccccn3)cc2)n1,"inconclusive: 16.4 µM [falling, single point]",
O=C(COc1ccccc1C(=O)NCc1ccccn1)Nc1ccc(Br)cc1,inactive,
CC(=O)n1nc(-c2ccccc2)nc1NCc1cccs1,"inconclusive: 29.1 µM [activator, single point]",
Cc1oc(-c2ccc(C(=O)NCc3ccccc3F)cc2)nc1COc1ccccc1,"inconclusive: 23.1 µM [falling, single point]",
Cc1ccc(S(=O)(=O)Nc2cccc(-n3cnnn3)c2)cc1C(=O)O,"inconclusive: 2.91 µM [activator, single point]",
CC(/C=C1\SC(=O)N(CCCC(=O)O)C1=O)=C\c1ccccc1,active: 2.31 µM,
O=C(CCS(=O)(=O)c1nc(-c2cccs2)cc(C(F)(F)F)n1)Nc1ccc(F)c(Cl)c1,,inactive: -12.2% [at 9.27 µM]
CC(=O)c1nn(-c2cccc(Br)c2)cc1C(=O)c1ccc(Cl)cc1,"inconclusive: 23.1 µM [falling, single point]",
CCN(CC(=O)NC1CCS(=O)(=O)C1)S(=O)(=O)c1ccccc1Cl (stereo not drawn),inactive,
C/C(=N/NC(=O)c1ccco1)c1ccc(NC(=O)c2ccc(Br)o2)cc1,"inconclusive: 20.6 µM [activator, single point]",
O=C(NCCCN1CCCCC1)c1[nH]c2ccccc2c1Sc1ccc(Cl)cc1,inactive,
COC(=O)C1=C(C)N(Cc2ccccc2)C(=NCCc2cccnc2)N[C@H]1c1ccc(Br)cc1,inactive,
CC(C)NC(=O)N(C)C[C@H]1Oc2ccc(NC(=O)NC3CCCCC3)cc2C(=O)N([C@H](C)CO)C[C@@H]1C,inactive,
CCOC(=O)c1ccc(NC2=CC(=O)C(=O)c3ccccc32)cc1,inactive,
Cc1oc(-c2ccc3c(c2)OCCO3)cc1C(=O)NC(CCC(=O)O)C(=O)O (stereo not drawn),"inconclusive: 11.6 µM [activator, partial curve, poor fit]",
Cc1cc(C)nc(NS(=O)(=O)c2ccc(NC(=O)c3nc(SC(C)C)ncc3Cl)cc2)n1,inactive,
C#CC(=O)N(c1cc(OC)ccc1OC)C(C(=O)NC1CCCC1)c1cccs1 (stereo not drawn),active: 10.3 µM,
COc1ccc(-n2cccc2/C=C/[N+](=O)[O-])cc1,inactive,
